Test results: the supplement of paper PMC10849652
The other results are listed elsewhere or left out.

Amino acid sequences for entries named in this document (tags omitted). A change or cut given only in a name is not applied to a line headed by its entry.
UniProt Q9NUG6, whole entry, looked up: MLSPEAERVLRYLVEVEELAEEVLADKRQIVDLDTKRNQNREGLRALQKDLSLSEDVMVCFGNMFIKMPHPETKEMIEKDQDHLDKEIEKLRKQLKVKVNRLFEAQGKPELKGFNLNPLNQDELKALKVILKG
UniProt Q96GU1: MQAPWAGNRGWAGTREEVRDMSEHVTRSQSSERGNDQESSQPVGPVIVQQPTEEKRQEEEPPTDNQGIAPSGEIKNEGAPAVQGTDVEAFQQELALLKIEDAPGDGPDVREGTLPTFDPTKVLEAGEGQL
UniProt Q15102: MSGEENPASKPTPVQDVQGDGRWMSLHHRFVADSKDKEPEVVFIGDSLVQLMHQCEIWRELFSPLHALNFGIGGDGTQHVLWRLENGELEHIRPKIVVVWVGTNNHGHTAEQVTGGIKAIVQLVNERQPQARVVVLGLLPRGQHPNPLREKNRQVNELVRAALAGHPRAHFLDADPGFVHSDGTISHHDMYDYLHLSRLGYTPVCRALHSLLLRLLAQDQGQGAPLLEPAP
UniProt O15530: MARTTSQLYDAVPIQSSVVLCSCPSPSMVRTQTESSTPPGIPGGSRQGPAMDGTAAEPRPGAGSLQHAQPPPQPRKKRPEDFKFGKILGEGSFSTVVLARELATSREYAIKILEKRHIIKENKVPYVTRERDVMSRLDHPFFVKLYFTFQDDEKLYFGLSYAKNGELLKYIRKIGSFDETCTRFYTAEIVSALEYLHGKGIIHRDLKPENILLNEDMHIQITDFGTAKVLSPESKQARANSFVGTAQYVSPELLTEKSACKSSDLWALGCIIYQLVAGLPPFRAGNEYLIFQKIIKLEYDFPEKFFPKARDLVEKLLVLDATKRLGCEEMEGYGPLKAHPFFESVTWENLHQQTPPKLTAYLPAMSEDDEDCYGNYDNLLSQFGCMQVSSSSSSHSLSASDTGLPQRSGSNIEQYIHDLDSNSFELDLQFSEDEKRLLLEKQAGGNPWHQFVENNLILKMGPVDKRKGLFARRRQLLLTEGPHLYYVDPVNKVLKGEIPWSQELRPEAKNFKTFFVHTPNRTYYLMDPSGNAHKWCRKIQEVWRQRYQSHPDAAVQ
UniProt O95453: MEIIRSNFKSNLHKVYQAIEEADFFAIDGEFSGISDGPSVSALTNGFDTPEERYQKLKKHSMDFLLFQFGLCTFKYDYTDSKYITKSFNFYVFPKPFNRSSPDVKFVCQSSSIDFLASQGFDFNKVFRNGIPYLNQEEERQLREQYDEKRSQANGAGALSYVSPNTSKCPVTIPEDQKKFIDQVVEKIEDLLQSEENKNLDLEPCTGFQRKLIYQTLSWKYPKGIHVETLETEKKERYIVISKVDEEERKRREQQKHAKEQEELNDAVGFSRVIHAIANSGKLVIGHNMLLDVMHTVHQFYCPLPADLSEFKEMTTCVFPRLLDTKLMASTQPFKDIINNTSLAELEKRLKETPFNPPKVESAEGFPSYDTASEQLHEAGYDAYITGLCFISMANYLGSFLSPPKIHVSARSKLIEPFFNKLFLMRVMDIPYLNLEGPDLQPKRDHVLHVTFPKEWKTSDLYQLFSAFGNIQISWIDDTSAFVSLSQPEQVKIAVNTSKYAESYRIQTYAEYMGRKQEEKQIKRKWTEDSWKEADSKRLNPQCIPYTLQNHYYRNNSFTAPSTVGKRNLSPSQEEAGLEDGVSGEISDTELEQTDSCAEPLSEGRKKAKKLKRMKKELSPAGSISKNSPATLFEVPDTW
UniProt P40425: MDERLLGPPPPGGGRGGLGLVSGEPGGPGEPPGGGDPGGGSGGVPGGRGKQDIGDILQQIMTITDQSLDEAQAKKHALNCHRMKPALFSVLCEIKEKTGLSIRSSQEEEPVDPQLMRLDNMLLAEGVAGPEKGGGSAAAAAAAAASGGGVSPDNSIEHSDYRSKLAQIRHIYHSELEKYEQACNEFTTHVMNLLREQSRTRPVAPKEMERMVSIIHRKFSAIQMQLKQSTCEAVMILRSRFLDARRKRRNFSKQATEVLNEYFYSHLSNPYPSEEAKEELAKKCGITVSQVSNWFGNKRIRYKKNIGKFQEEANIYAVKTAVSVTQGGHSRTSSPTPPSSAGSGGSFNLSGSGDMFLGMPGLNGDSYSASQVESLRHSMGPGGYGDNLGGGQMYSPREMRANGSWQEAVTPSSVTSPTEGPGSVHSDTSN
UniProt Q29RF7: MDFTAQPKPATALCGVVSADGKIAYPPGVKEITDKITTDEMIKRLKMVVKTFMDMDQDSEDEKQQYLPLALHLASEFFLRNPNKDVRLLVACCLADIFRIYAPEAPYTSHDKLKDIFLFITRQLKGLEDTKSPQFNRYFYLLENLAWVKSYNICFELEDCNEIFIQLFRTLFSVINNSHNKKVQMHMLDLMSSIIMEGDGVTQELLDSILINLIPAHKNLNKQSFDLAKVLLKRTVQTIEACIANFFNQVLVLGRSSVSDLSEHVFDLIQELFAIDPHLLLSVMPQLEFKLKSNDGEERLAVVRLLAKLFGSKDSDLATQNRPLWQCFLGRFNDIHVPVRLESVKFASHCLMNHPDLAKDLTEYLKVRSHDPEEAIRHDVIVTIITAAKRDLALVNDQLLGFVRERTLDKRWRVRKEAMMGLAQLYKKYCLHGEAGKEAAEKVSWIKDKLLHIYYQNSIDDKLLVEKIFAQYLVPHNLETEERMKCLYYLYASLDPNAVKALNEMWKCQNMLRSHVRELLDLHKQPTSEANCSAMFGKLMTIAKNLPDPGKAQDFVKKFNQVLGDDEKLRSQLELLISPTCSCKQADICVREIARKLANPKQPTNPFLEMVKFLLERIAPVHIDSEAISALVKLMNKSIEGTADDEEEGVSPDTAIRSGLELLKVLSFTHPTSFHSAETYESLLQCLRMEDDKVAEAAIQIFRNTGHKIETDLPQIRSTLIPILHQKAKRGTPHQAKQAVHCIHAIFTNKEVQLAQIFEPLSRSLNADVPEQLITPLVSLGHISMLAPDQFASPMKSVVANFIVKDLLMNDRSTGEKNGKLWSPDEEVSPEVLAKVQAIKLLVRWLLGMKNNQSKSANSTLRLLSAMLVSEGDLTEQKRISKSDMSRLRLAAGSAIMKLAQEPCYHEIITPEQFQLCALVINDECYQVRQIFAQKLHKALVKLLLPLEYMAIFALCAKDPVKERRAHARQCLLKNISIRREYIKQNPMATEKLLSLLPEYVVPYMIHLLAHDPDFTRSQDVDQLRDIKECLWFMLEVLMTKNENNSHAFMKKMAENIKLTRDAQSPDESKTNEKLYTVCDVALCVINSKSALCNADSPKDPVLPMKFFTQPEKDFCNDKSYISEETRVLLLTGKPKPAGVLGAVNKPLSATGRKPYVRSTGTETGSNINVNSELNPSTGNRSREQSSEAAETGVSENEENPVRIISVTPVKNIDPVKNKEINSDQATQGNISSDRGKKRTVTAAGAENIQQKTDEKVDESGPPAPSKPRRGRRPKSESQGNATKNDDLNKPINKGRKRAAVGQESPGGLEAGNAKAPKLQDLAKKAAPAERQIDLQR
UniProt P68402: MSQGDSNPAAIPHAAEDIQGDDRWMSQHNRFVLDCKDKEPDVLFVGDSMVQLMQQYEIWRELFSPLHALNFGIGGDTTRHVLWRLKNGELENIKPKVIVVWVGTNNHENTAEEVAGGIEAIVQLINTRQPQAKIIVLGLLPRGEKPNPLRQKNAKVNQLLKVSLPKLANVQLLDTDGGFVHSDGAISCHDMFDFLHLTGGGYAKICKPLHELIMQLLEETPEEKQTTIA
UniProt Q5VU43: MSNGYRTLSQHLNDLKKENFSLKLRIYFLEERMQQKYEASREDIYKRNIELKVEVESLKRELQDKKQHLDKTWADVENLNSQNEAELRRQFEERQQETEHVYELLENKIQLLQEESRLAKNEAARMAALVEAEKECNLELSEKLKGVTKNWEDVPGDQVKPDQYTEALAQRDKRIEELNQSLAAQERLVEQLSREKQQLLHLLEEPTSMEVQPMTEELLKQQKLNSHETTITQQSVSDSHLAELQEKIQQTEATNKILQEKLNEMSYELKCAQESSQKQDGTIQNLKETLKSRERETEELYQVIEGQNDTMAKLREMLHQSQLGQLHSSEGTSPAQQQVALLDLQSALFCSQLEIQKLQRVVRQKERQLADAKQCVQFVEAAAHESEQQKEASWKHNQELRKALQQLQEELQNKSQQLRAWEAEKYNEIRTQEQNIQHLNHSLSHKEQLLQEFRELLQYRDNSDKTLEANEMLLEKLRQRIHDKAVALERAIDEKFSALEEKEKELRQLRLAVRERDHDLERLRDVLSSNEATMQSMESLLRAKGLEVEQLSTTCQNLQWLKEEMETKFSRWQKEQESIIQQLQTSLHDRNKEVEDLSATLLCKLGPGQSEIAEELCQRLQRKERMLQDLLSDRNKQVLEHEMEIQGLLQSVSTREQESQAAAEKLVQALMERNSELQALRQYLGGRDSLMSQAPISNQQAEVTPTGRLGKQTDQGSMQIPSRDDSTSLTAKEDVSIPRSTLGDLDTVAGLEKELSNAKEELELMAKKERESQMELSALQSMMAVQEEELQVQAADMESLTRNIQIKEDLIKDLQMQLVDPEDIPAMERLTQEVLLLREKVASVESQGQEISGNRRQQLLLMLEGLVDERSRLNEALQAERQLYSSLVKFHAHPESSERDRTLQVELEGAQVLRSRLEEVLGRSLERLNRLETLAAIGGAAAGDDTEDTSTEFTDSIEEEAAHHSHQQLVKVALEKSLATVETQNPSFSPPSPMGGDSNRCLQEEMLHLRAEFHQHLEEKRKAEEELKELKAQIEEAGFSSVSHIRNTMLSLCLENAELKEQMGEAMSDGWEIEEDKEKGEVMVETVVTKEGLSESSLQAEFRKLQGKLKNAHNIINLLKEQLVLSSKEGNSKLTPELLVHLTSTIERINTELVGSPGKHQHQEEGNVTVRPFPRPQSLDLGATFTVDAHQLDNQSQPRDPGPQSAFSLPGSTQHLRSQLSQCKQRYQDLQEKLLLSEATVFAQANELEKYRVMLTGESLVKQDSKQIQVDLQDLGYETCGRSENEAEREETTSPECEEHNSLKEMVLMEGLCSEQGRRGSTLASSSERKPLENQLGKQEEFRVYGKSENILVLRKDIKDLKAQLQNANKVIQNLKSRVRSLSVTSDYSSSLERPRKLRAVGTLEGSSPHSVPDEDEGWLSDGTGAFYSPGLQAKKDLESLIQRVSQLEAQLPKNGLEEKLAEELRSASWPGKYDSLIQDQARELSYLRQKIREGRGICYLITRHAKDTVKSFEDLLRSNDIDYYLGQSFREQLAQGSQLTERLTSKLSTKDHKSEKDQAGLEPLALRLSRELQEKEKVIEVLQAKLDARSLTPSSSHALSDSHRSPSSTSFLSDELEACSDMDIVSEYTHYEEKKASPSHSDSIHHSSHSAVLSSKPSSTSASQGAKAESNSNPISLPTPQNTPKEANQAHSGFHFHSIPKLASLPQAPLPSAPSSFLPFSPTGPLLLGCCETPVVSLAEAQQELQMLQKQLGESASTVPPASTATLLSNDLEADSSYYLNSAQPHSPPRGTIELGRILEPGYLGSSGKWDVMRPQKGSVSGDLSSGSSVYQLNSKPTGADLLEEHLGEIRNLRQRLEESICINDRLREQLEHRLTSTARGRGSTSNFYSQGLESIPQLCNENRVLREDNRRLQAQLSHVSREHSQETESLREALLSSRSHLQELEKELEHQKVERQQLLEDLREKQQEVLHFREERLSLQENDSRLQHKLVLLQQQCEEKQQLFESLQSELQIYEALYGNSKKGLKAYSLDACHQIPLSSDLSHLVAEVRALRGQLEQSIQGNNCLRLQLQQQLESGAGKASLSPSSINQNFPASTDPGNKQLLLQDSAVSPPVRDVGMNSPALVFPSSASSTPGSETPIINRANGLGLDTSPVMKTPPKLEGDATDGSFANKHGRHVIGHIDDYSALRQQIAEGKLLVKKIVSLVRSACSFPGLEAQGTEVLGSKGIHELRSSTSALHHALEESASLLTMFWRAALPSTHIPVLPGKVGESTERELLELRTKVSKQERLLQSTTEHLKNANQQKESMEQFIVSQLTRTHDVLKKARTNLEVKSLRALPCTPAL
UniProt P49585: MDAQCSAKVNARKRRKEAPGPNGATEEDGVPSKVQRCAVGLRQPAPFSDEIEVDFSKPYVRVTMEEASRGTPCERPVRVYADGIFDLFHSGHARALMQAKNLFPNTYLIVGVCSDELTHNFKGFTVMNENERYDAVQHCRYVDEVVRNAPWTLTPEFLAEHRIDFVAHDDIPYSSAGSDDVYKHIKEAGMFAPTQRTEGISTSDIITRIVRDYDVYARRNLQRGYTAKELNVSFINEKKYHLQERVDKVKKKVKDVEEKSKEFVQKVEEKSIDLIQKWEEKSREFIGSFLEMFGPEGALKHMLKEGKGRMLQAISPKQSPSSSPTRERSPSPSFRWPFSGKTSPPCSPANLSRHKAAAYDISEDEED

Experiments:
Experiment in all cases: log2 fold change, soluble protein after heating vs DMSO (PISA); higher = thermal stabilisation; K562 cells, 10 uM, 30 min; active = over 0.2 and 3.5 SD of the protein, either way, in both replicates (recomputed)
[1] = compound: COC1=CC=C(C=C1)CN2C=CC3=C2C=C(C=C3)C(=O)NO
How it was run: (§1)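 Values are thermal stability changes relative to control samples and are taken from duplicates. They are stated as log2 fold changes. Before quantification by TMTpro 16plex LC-MS/MS with equalised channel sums, K562 cells at 2×10^6 cells/mL were treated with 10 μM compound for 30 min, heated in aliquots for 3 min across 48°C-58°C, pooled, extracted in PBS with 0.5% NP-40 at 4°C, and centrifuged at 21,000xg for 90 min to give the soluble supernatant.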

filanesib = compound: CON(C)C(=O)N1N=C(c2cc(F)ccc2F)S[C@@]1(CCCN)c1ccccc1 [filanesib]
How it was run: as §1

zotarolimus = compound: CO[C@H]1C[C@@H]2CC[C@@H](C)[C@@](O)(O2)C(=O)C(=O)N2CCCC[C@H]2C(=O)O[C@H]([C@H](C)C[C@@H]2CC[C@H](n3cnnn3)[C@H](OC)C2)CC(=O)[C@H](C)/C=C(\C)[C@@H](O)[C@@H](OC)C(=O)[C@H](C)C[C@H](C)/C=C/C=C/C=C/1C [zotarolimus]
How it was run: as §1

idasanutlin = compound: COc1cc(C(=O)O)ccc1NC(=O)[C@@H]1N[C@@H](CC(C)(C)C)[C@](C#N)(c2ccc(Cl)cc2F)[C@H]1c1cccc(Cl)c1F [idasanutlin]
How it was run: as §1

alisertib = compound: COc1cc(Nc2ncc3c(n2)-c2ccc(Cl)cc2C(c2c(F)cccc2OC)=NC3)ccc1C(=O)O [alisertib]
How it was run: as §1

[2] = compound: COc1cc2nc(-c3cc(F)ccc3O)nc(N[C@@H]3CNC[C@H]3C(C)(C)O)c2cc1OC
How it was run: as §1

gefitinib = compound: COc1cc2ncnc(Nc3ccc(F)c(Cl)c3)c2cc1OCCCN1CCOCC1 [gefitinib]
How it was run: as §1

[3] = compound: COc1cccc2cc(-c3nc([C@H]4CC[C@H](C(=O)O)CC4)n4ncnc(N)c34)[nH]c12
How it was run: as §1

lapatinib = compound: CS(=O)(=O)CCNCc1ccc(-c2ccc3ncnc(Nc4ccc(OCc5cccc(F)c5)c(Cl)c4)c3c2)o1 [lapatinib]
How it was run: as §1

pictilisib = compound: CS(=O)(=O)N1CCN(Cc2cc3nc(-c4cccc5[nH]ncc45)nc(N4CCOCC4)c3s2)CC1 [pictilisib]
How it was run: as §1

[4] = compound: CS(=O)(=O)c1ccc(-c2cnc(N)c(C(=O)Nc3ccccc3)n2)cc1
How it was run: as §1

crizotinib = compound: C[C@@H](Oc1cc(-c2cnn(C3CCNCC3)c2)cnc1N)c1c(Cl)ccc(F)c1Cl [crizotinib]
How it was run: as §1

[5] = compound: C[C@@H]1COCCN1C2=NC(=NC(=C2)C3(CC3)S(=O)(=O)C)C4=C5C=CNC5=CC=C4
How it was run: as §1

[6] = compound: C[C@H](C1=CC=C(C=C1)C(=O)NC2=C3C=CNC3=NC=C2)N
How it was run: as §1

duvelisib = compound: C[C@H](Nc1ncnc2nc[nH]c12)c1cc2cccc(Cl)c2c(=O)n1-c1ccccc1 [duvelisib]
How it was run: as §1

gandotinib = compound: Cc1cc(Nc2cc(CN3CCOCC3)c3nc(C)c(Cc4ccc(Cl)cc4F)n3n2)n[nH]1 [gandotinib]
How it was run: as §1

tozasertib = compound: Cc1cc(Nc2cc(N3CCN(C)CC3)nc(Sc3ccc(NC(=O)C4CC4)cc3)n2)n[nH]1 [tozasertib]
How it was run: as §1

[7] = compound: Cc1cc(SCc2sc(-c3ccc(C(F)(F)F)cc3)nc2C)ccc1OCC(=O)O
How it was run: as §1

doramapimod = compound: Cc1ccc(-n2nc(C(C)(C)C)cc2NC(=O)Nc2ccc(OCCN3CCOCC3)c3ccccc23)cc1 [doramapimod]
How it was run: as §1

ispinesib = compound: Cc1ccc(C(=O)N(CCCN)[C@@H](c2nc3cc(Cl)ccc3c(=O)n2Cc2ccccc2)C(C)C)cc1 [ispinesib]
How it was run: as §1

Measured: log2 fold change

PDRG1 (UniProt Q9NUG6)
inactive: [1] -0.017 | filanesib -0.034 | zotarolimus 0.038 | idasanutlin -0.001 | alisertib -0.017 | [2] -0.001 | gefitinib 0 | [3] -0.009 | lapatinib -0.001 | pictilisib 0.045 | [4] -0.022 | crizotinib -0.06 | [5] -0.054 | [6] 0.009 | duvelisib 0.014 | gandotinib 0.018 | tozasertib -0.05 | [7] -0.004 | doramapimod -0.008 | ispinesib 0.151

PAGE5 (UniProt Q96GU1)
inactive: [1] 0.211 | filanesib 0.333 | zotarolimus 0.026 | idasanutlin 0.025 | alisertib -0.08 | [2] -0.089 | gefitinib 0.038 | [3] 0.055 | lapatinib -0.193 | pictilisib 0.177 | [4] -0.09 | crizotinib 0.135 | [5] 0.16 | [6] -0.034 | duvelisib 0.423 | gandotinib 0.22 | tozasertib 0.08 | [7] -0.091 | doramapimod -0.128 | ispinesib 0.202

PELP1 (UniProt Q8IZL8)
inactive: [1] -0.096 | filanesib -0.022 | zotarolimus 0.012 | idasanutlin 0.012 | alisertib -0.045 | [2] -0.033 | gefitinib -0.002 | [3] 0.042 | lapatinib 0.031 | pictilisib -0.074 | [4] -0.006 | crizotinib -0.012 | [5] -0.107 | [6] -0.024 | gandotinib -0.282 | [7] 0.111 | doramapimod 0.019 | ispinesib 0.004

PCSK9 (UniProt Q8NBP7)
inactive: [1] -0.035 | filanesib 0.021 | zotarolimus 0.105 | idasanutlin 0.112 | alisertib -0.007 | [2] 0.083 | gefitinib 0.022 | [3] -0.03 | lapatinib 0.078 | pictilisib 0.018 | [4] 0.081 | crizotinib 0.015 | [5] -0.01 | [6] 0.038 | gandotinib -0.01 | tozasertib -0.093 | doramapimod 0.041 | ispinesib 0.023

PAFAH1B3 (UniProt Q15102)
inactive: [1] -0.01 | filanesib -0.024 | zotarolimus 0.037 | idasanutlin -0.033 | alisertib -0.044 | [2] 0.03 | gefitinib 0.043 | [3] 0.057 | lapatinib -0.054 | pictilisib 0.079 | [4] 0.059 | crizotinib 0.041 | [5] 0.165 | [6] -0.039 | gandotinib -0.062 | [7] 0.031 | doramapimod -0.009 | ispinesib 0.014

PDPK1 (UniProt O15530)
active: crizotinib -0.282
inactive: [1] -0.015 | filanesib -0.097 | zotarolimus 0.04 | idasanutlin -0.048 | alisertib -0.017 | [2] 0.011 | gefitinib -0.028 | [3] 0.01 | lapatinib -0.058 | pictilisib -0.179 | [4] -0.066 | [5] 0.081 | [6] 0.013 | gandotinib -0.173 | [7] 0.015 | doramapimod 0.003 | ispinesib -0.143

PARN (UniProt O95453)
inactive: [1] 0.001 | filanesib -0.015 | zotarolimus -0.009 | idasanutlin -0.028 | alisertib 0.001 | [2] 0.051 | gefitinib -0.009 | [3] 0.04 | lapatinib -0.028 | pictilisib -0.036 | [4] 0.028 | crizotinib -0.095 | [5] 0.125 | [6] -0.025 | gandotinib -0.127 | [7] 0.069 | doramapimod -0.037 | ispinesib -0.021

PBX2 (UniProt P40425)
active: gandotinib -0.632
inactive: [1] 0.132 | filanesib -0.055 | zotarolimus 0.115 | idasanutlin 0.102 | alisertib -0.027 | [2] -0.114 | gefitinib -0.02 | [3] 0 | lapatinib 0.014 | pictilisib 0.01 | [4] -0.001 | crizotinib -0.14 | [5] 0.026 | [6] -0.051 | [7] 0.095 | doramapimod 0.119 | ispinesib -0.102

PELO (UniProt Q9BRX2)
inactive: [1] 0.001 | filanesib 0.128 | zotarolimus 0.158 | idasanutlin -0.024 | alisertib 0.489 | [2] 0.053 | gefitinib 0.009 | [3] 0.001 | lapatinib -0.06 | pictilisib -0.111 | [4] 0.026 | crizotinib -0.15 | [5] -0.037 | [6] 0.158 | gandotinib -0.096 | [7] 0.07 | doramapimod 0.077 | ispinesib -0.336

PDS5A (UniProt Q29RF7)
inactive: [1] 0.076 | filanesib -0.316 | zotarolimus -0.137 | idasanutlin -0.012 | alisertib 0.067 | [2] 0.043 | gefitinib -0.125 | [3] -0.19 | lapatinib -0.072 | pictilisib -0.014 | [4] 0.03 | crizotinib -0.383 | [5] 0.063 | [6] 0.043 | gandotinib -0.099 | [7] 0.182 | doramapimod -0.057 | ispinesib -0.127

PAFAH1B2 (UniProt P68402)
inactive: [1] 0.044 | filanesib -0.074 | zotarolimus 0.007 | idasanutlin 0.082 | alisertib 0.02 | [2] -0.071 | gefitinib 0.086 | [3] 0.033 | lapatinib 0.029 | pictilisib -0.28 | [4] 0.016 | crizotinib -0.017 | [5] -0.13 | [6] -0.054 | gandotinib 0.16 | [7] -0.066 | doramapimod 0.022 | ispinesib -0.002

PDE4DIP isoform 4 (UniProt Q5VU43)
inactive: [1] 0.113 | filanesib -0.057 | zotarolimus -0.046 | idasanutlin 0.055 | alisertib -0.102 | [2] 0.024 | gefitinib 0.024 | [3] -0.022 | lapatinib -0.005 | pictilisib 0.042 | [4] -0.007 | crizotinib 0.02 | [5] 0.134 | [6] -0.002 | gandotinib 0.106 | [7] 0.008 | doramapimod 0.01 | ispinesib -0.073

PBK (UniProt Q96KB5)
inactive: [1] -0.01 | filanesib 0.056 | zotarolimus 0.112 | idasanutlin 0.027 | alisertib -0.032 | [2] 0.014 | gefitinib 0.084 | [3] -0.169 | lapatinib -0.001 | pictilisib 0.086 | [4] 0.048 | crizotinib -0.046 | [5] 0.051 | [6] 0.134 | gandotinib -0.136 | [7] 0.157 | doramapimod 0.015 | ispinesib -0.066

PCYT1A (UniProt P49585)
inactive: [1] 0.006 | filanesib -0.005 | zotarolimus 0.035 | idasanutlin -0.015 | alisertib 0.025 | [2] -0.05 | gefitinib -0.012 | [3] -0.037 | lapatinib 0.018 | pictilisib 0.03 | [4] -0.031 | crizotinib -0.032 | [5] 0.092 | [6] -0.097 | gandotinib -0.148 | [7] 0.094 | doramapimod -0.008 | ispinesib 0.003

Quoted from above (4 entries):
PAFAH1B2 (UniProt P68402)
inactive: [1] 0.044 | filanesib -0.074 | zotarolimus 0.007 | idasanutlin 0.082 | alisertib 0.02 | [2] -0.071 | gefitinib 0.086 | [3] 0.033 | lapatinib 0.029 | pictilisib -0.28 | [4] 0.016 | crizotinib -0.017 | [5] -0.13 | [6] -0.054 | gandotinib 0.16 | [7] -0.066 | doramapimod 0.022 | ispinesib -0.002

PDE4DIP isoform 4 (UniProt Q5VU43)
inactive: [1] 0.113 | filanesib -0.057 | zotarolimus -0.046 | idasanutlin 0.055 | alisertib -0.102 | [2] 0.024 | gefitinib 0.024 | [3] -0.022 | lapatinib -0.005 | pictilisib 0.042 | [4] -0.007 | crizotinib 0.02 | [5] 0.134 | [6] -0.002 | gandotinib 0.106 | [7] 0.008 | doramapimod 0.01 | ispinesib -0.073

PBK (UniProt Q96KB5)
inactive: [1] -0.01 | filanesib 0.056 | zotarolimus 0.112 | idasanutlin 0.027 | alisertib -0.032 | [2] 0.014 | gefitinib 0.084 | [3] -0.169 | lapatinib -0.001 | pictilisib 0.086 | [4] 0.048 | crizotinib -0.046 | [5] 0.051 | [6] 0.134 | gandotinib -0.136 | [7] 0.157 | doramapimod 0.015 | ispinesib -0.066

PCYT1A (UniProt P49585)
inactive: [1] 0.006 | filanesib -0.005 | zotarolimus 0.035 | idasanutlin -0.015 | alisertib 0.025 | [2] -0.05 | gefitinib -0.012 | [3] -0.037 | lapatinib 0.018 | pictilisib 0.03 | [4] -0.031 | crizotinib -0.032 | [5] 0.092 | [6] -0.097 | gandotinib -0.148 | [7] 0.094 | doramapimod -0.008 | ispinesib 0.003

Later entries.

PANK4 (UniProt Q9NVE7)
inactive: [1] 0.091 | filanesib 0.009 | zotarolimus 0.182 | idasanutlin 0.198 | alisertib -0.073 | [2] 0.174 | gefitinib -0.045 | [3] 0.041 | lapatinib -0.054 | pictilisib -0.031 | [4] 0.024 | crizotinib 0.089 | [5] 0.073 | [6] -0.032 | duvelisib 0.079 | gandotinib 0.095 | tozasertib -0.017 | [7] 0.037 | doramapimod -0.049 | ispinesib 0.151

PCBP2 (UniProt F8VRH0)
inactive: [1] 0.139 | filanesib 0.107 | zotarolimus 0.013 | idasanutlin 0.218 | alisertib 0.305 | [2] -0.34 | gefitinib 0.055 | [3] -0.21 | lapatinib 0.06 | pictilisib -0.231 | [4] -0.181 | crizotinib -0.075 | [5] -0.22 | [6] -0.267 | gandotinib 0.013 | [7] 0.074 | doramapimod -0.225
